Results from the supplement of paper PMC12067093, “Discovery and optimisation of a covalent ligand for TRIM25 and its application to targeted protein ubiquitination” (Chemical Science, 2025).
The other results are listed elsewhere or left out.

The chains behind the UniProt entries cited, without tags or fusion partners. Where a name states a change or a piece, a line headed by the entry shows the natural chain unless it says otherwise.
UniProt P29590: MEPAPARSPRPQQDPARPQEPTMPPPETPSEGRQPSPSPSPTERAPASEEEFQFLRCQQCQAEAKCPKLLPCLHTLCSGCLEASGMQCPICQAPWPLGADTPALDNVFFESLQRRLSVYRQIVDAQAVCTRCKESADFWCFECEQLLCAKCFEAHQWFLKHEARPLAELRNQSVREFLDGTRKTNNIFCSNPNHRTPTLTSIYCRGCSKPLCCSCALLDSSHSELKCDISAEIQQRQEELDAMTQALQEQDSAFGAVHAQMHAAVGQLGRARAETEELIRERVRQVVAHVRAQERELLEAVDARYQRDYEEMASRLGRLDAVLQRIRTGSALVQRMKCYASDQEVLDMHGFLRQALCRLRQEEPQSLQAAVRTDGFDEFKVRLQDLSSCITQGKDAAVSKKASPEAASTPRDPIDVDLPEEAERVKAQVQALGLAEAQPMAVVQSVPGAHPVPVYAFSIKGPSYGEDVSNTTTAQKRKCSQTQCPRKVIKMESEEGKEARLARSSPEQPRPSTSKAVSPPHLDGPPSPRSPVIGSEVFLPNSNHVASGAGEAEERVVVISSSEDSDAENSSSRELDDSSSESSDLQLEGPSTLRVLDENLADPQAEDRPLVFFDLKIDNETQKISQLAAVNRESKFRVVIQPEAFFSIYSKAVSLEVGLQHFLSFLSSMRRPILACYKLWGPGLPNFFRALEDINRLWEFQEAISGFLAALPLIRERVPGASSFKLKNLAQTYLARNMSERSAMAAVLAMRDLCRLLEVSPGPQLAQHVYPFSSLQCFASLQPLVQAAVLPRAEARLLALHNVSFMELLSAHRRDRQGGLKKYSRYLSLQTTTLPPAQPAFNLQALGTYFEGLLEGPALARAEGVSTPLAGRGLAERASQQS
UniProt O00329: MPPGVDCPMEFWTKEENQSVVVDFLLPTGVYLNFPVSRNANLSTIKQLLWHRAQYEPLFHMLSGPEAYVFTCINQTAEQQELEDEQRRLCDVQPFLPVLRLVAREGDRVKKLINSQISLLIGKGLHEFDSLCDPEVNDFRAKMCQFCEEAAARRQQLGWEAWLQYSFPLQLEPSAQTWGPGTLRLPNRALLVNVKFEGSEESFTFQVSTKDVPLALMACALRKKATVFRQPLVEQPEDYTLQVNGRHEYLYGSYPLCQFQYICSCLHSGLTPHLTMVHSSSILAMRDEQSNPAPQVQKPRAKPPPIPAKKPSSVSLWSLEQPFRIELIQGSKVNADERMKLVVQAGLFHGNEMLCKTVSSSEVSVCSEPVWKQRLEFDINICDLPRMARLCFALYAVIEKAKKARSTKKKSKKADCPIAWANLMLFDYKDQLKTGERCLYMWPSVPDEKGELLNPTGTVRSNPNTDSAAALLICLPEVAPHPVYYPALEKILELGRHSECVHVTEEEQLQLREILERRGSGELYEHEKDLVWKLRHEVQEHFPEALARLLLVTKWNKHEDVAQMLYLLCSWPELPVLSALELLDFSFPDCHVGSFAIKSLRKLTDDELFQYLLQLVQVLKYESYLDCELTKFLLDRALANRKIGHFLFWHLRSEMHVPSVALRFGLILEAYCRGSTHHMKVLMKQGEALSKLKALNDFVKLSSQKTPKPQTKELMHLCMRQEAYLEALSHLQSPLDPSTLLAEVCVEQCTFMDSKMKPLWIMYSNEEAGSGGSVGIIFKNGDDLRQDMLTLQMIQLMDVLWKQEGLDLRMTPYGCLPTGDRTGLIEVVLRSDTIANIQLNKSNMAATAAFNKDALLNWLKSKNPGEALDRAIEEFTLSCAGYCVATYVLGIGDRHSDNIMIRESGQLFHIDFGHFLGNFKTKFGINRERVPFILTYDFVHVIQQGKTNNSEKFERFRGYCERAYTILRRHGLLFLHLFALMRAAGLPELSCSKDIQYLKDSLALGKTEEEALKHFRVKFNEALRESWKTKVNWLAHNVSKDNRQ
UniProt Q8N490: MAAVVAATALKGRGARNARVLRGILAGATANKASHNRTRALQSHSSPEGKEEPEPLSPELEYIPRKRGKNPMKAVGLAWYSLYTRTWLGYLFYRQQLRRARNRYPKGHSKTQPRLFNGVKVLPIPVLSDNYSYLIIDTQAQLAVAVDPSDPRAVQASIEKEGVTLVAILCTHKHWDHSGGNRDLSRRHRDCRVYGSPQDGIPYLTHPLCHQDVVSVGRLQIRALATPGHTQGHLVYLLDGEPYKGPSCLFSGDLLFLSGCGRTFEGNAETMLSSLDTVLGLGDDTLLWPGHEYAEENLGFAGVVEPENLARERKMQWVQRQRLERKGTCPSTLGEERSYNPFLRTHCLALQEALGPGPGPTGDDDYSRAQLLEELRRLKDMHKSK
UniProt Q9Y263: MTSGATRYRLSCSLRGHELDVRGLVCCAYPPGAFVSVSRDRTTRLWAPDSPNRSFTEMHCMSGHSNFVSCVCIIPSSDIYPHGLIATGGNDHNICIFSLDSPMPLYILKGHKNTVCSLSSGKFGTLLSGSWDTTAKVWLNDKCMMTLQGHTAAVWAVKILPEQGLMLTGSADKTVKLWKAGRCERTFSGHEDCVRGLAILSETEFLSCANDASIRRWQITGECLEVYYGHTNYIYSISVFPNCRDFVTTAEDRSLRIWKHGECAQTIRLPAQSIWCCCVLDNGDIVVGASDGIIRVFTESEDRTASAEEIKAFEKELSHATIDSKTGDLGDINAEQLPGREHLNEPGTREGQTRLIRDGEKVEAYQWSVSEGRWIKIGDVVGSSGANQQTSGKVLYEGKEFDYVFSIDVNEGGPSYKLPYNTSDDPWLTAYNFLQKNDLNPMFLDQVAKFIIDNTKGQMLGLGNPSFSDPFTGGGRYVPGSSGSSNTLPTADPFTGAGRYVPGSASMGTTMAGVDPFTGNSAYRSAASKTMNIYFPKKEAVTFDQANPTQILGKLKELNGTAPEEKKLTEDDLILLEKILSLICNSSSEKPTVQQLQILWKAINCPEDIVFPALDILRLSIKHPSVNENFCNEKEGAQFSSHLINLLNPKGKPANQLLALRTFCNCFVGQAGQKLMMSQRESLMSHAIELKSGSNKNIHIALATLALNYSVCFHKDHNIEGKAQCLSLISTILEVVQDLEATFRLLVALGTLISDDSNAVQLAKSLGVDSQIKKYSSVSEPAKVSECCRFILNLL
UniProt Q03405, whole entry, looked up: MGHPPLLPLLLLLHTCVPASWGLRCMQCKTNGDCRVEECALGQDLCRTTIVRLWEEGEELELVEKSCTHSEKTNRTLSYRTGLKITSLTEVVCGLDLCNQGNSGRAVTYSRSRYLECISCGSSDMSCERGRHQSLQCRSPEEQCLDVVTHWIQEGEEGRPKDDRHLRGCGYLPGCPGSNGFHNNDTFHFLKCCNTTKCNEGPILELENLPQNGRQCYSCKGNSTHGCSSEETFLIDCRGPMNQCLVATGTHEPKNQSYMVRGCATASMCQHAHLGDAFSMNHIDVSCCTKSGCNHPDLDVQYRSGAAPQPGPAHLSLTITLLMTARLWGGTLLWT
UniProt Q8NCC3: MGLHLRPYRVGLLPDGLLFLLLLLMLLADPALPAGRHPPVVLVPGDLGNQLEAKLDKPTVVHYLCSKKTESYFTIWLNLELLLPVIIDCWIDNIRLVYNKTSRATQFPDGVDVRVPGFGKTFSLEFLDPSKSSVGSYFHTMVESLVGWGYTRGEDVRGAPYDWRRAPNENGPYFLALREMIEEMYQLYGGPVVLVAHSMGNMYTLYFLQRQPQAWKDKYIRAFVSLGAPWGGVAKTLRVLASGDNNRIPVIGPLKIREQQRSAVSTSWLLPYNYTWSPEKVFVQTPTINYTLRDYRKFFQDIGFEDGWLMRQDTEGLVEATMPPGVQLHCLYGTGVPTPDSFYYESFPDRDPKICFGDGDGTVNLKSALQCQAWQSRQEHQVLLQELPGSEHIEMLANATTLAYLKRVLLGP
UniProt Q01970, whole entry, looked up: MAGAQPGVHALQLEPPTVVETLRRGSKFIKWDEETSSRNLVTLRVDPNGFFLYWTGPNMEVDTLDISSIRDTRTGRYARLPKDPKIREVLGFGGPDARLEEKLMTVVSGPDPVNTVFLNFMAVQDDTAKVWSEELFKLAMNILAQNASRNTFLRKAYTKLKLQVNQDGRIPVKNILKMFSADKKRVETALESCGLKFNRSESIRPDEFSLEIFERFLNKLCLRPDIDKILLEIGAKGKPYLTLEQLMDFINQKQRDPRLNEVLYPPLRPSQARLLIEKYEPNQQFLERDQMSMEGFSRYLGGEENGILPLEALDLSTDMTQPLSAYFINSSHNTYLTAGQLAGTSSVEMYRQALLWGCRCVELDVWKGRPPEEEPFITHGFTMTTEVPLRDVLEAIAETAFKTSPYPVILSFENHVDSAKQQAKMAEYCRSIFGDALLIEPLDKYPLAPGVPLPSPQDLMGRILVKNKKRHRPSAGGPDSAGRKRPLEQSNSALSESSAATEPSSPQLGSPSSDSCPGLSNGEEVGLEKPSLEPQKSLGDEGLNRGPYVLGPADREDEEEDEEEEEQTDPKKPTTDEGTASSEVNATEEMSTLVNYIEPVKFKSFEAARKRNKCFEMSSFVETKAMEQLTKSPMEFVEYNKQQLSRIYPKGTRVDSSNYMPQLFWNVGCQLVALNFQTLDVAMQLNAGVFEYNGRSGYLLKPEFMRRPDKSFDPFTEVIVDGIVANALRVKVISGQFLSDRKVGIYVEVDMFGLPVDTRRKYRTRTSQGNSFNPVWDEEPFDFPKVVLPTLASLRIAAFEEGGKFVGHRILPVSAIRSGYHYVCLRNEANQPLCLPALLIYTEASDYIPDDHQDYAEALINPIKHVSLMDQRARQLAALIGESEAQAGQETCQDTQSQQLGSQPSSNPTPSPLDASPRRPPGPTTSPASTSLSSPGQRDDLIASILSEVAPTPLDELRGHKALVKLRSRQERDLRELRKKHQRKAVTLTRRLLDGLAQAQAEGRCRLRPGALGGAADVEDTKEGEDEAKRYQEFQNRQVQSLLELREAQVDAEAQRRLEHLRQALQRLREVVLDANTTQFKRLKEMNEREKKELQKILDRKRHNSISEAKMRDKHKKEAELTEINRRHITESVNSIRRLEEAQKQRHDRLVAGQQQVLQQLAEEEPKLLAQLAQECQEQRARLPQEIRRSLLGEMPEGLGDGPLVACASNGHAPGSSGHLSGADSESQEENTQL
UniProt Q96CS7: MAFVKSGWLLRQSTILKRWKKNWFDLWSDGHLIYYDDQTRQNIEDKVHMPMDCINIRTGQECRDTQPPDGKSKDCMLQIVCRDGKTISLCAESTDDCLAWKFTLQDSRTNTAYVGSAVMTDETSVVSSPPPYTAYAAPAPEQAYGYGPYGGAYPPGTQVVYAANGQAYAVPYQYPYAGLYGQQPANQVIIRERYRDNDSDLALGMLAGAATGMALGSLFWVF
UniProt Q00722, whole entry, looked up: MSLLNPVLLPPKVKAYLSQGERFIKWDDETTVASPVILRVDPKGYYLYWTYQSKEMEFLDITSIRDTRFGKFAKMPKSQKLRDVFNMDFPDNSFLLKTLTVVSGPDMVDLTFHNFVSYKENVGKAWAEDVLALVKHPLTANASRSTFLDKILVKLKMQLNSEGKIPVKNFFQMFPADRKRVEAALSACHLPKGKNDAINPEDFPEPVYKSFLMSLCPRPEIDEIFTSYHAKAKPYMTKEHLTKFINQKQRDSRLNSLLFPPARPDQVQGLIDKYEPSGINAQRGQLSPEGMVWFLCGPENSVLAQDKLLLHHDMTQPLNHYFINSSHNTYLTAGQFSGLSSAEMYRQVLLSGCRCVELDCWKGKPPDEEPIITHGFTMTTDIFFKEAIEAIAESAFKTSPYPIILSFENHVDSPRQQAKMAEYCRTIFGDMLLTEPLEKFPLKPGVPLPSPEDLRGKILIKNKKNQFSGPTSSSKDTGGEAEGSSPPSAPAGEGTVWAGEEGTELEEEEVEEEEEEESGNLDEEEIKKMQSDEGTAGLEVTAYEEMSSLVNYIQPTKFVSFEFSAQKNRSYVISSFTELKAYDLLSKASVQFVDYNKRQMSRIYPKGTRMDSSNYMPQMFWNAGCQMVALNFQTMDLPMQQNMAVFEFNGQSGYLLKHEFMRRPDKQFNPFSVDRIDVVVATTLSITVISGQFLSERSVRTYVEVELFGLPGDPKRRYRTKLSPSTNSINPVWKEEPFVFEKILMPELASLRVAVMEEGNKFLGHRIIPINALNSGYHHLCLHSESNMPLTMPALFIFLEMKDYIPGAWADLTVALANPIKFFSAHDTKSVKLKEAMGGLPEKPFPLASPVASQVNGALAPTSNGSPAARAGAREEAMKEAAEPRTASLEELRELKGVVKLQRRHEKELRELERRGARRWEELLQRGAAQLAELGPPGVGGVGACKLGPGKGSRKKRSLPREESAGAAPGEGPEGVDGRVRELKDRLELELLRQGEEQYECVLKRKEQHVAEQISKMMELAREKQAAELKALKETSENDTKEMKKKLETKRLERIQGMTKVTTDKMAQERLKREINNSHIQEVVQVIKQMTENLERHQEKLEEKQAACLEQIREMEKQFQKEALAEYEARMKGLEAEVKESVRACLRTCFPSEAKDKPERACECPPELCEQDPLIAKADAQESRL

Compound: CC1Cc2ccccc2N1C(=O)C1CCCN(C1)C(=O)CCl (mixture of isomers) [TRIM25 ligand 11 (diastereomer mixture)]
Assay: probe-labelled cysteine peptide fold change vs DMSO (competition) (log2 fold change); higher = less target engagement (more negative = stronger competition)
Conditions: THP-1, incubation time: 4 h
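Further: competitive chemoproteomic profiling in live THP-1 cells with an iodoacetamide desthiobiotin (IA-DTB) probe, comparing probe-labelled peptide intensities in compound-treated cells against DMSO-treated controls.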

Row | Target | probe-labelled cysteine peptide fold change (10 µM) | probe-labelled cysteine peptide fold change (50 µM)
1 | PLCG2_P16885_496_HYCAIADAK (UniProt P16885) | -0.0451 | 0.0973
2 | PIK3CB_P42338_392_NDHIWNEPLEFDINICDLPR (UniProt P42338) | -0.172 | 0.347
3 | PNPLA6_Q8IY17_991_GCSHIGVLK (UniProt Q8IY17) | -0.0375 | -0.0083
4 | PLEKHF2_Q9H8W4_186_CGFVVCGPCSEK (UniProt Q9H8W4) | 0.0588 | 0.246
5 | PLSCR1_O15162_254_SLDEQCVVGK (UniProt O15162) | 0.226 | 0.125
6 | PMS1_P54277_243_CDADHSFTSLSTPER (UniProt P54277) | 0.119 | 0.00235
7 | PLXNB2_O15031_555_RAQGEVQLTVSPLPALSEEDELLCLFGESPPHPAR (UniProt O15031) | 0.112 | 0.319
8 | PLCG2_P16885_360_CIELDCWDGPDGKPVIYHGWTR (UniProt P16885) | 0.00239 | 0.163
9 | PML_P29590_189_KTNNIFCSNPNHR (UniProt P29590) | -0.0392 | -0.137
10 | PMVK_Q15126_92_RQADPGFFCR (UniProt Q15126) | -0.175 | -0.0533
11 | PIK3CD_O00329_355_LVVQAGLFHGNEMLCK (UniProt O00329) | -0.164 | 0.0896
12 | PNKD_Q8N490_170_EGVTLVAILCTHK (UniProt Q8N490) | -0.0503 | 0.107
13 | PLS3_P13797_33_VDLNSNGFICDYELHELFK (UniProt P13797) | 0.103 | 0.0703
14 | PLAA_Q9Y263_278_LPAQSIWCCCVLDNGDIVVGASDGIIR (UniProt Q9Y263) | -0.164 | 0.0627
15 | PLEC_Q15149_965_QVEVTVHKGDECQLVGPAQPSHWK (UniProt Q15149) | 0.0381 | 0.052
16 | PLXNB2_O15031_637_WTCQWDLR (UniProt O15031) | -0.109 | 0.0373
17 | PLAUR_Q03405_144_SPEEQCLDVVTHWIQEGEEGRPK (UniProt Q03405) | 0.161 | 0.2
18 | PIK3R1_P27986_167_QLLDCDTPSVDLEMIDVHVLADAFKR (UniProt P27986) | 0.0342 | -0.148
19 | PLA2G15_Q8NCC3_65_LDKPTVVHYLCSK (UniProt Q8NCC3) | 0.158 | 0.342
20 | PLG_P00747_398_KCQSWSSMTPHR (UniProt P00747) | -0.0835 | -0.104
21 | PLCB3_Q01970_193_VETALESCGLK (UniProt Q01970) | 0.0848 | -0.133
22 | PIK3CB_P42338_551_EILDRDPLSQLCENEMDLIWTLR (UniProt P42338) | -0.1 | -0.0953
23 | PIK3CD_O00329_132_GLHEFDSLCDPEVNDFR (UniProt O00329) | -0.033 | -0.0623

Record cards (already shown):
PMS1_P54277_243_CDADHSFTSLSTPER (UniProt P54277) is listed as probe-labelled cysteine peptide fold change (10 µM): 0.119; probe-labelled cysteine peptide fold change (50 µM): 0.00235
PLAUR_Q03405_144_SPEEQCLDVVTHWIQEGEEGRPK (UniProt Q03405) is listed as probe-labelled cysteine peptide fold change (10 µM): 0.161; probe-labelled cysteine peptide fold change (50 µM): 0.2
PLXNB2_O15031_637_WTCQWDLR (UniProt O15031) is listed as probe-labelled cysteine peptide fold change (10 µM): -0.109; probe-labelled cysteine peptide fold change (50 µM): 0.0373

Further results follow.

Row | Target | probe-labelled cysteine peptide fold change (10 µM) | probe-labelled cysteine peptide fold change (50 µM)
24 | PIK3C3_Q8NEB9_476_EVPDGENLEQDLCTFLISR (UniProt Q8NEB9) | -0.253 | 0.0238
25 | PLXNB2_O15031_948_FGAQLQCVTGPQATR (UniProt O15031) | 0.149 | 0.0289
26 | PKM_P14618_31_SKPHSEAGTAFIQTQQLHAAMADTFLEHMCR (UniProt P14618) | -0.0647 | -0.0332
27 | PLEC_Q15149_3493_TLLQGSGCLAGIYLEDTK (UniProt Q15149) | 0.241 | 0.0674
28 | PLPPR3_Q6T4P5_54_VGFQCYDR (UniProt Q6T4P5) | 0.0205 | 0.0103
29 | PLOD3_O60568_379_DMAMDLCR (UniProt O60568) | -0.0718 | 0.225
30 | PMPCA_Q10713_225_FCPTENVAK (UniProt Q10713) | 0.0792 | 0.0898
31 | PIKFYVE_Q9Y2I7_1677_EPSSIIAFALSCK (UniProt Q9Y2I7) | -0.0654 | -0.176
32 | PITPNB_P48739_94_AWNAYPYCR (UniProt P48739) | 0.000331 | -0.0202
33 | PLCG2_P16885_791_SDELSFCR (UniProt P16885) | 0.0473 | 0.0374
34 | PNKD_Q8N490_347_THCLALQEALGPGPGPTGDDDYSR (UniProt Q8N490) | 0.0381 | -0.298
35 | PLBD2_Q8NHP8_495_ACNPQPNGENAISAR (UniProt Q8NHP8) | -0.125 | -0.0422
36 | PLEC_Q15149_545_LQMEAGLCEEQLNQADALLQSDVR (UniProt Q15149) | 0.123 | 0.0152
37 | PKN1_Q16512_662_DEVESLMCEK (UniProt Q16512) | 0.16 | 0.0355
38 | PLEK_P08567_102_CIEGGQK (UniProt P08567) | 0.0434 | 0.0851
39 | PKN1_Q16512_442_GLCALK (UniProt Q16512) | -0.0211 | 0.113
40 | PIK3R4_Q99570_955_REQCNAER (UniProt Q99570) | -0.00312 | -0.0264
41 | PLBD2_Q8NHP8_492_YNDFLHDPLSLCK (UniProt Q8NHP8) | 0.0201 | 0.0295
42 | PLPBP_O94903_261_CAADVK (UniProt O94903) | -0.0613 | -0.126
43 | PLXNB2_O15031_112_LVECGSLFK (UniProt O15031) | 0.247 | 0.163
44 | PLCB3_Q01970_358_QALLWGCR (UniProt Q01970) | 0.105 | 0.0907
45 | PNKP_Q96T60_447_CFLFTATLEQAR (UniProt Q96T60) | -0.17 | -0.00408
46 | PKM_P14618_474_GIFPVLCKDPVQEAWAEDVDLR (UniProt P14618) | -0.373 | -0.303

Row | Target | probe-labelled cysteine peptide fold change (10 µM) | probe-labelled cysteine peptide fold change (50 µM)
47 | PLAUR_Q03405_46_VEECALGQDLCR (UniProt Q03405) | -0.103 | -0.141
48 | PIK3CD_O00329_416_ADCPIAWANLMLFDYK (UniProt O00329) | 0.261 | -0.29
49 | PLEKHG2_Q9H7P9_405_RLWIHCLQR (UniProt Q9H7P9) | -0.0889 | -0.0245
50 | PLEKHB2_Q96CS7_75+81_DCMLQIVCR (UniProt Q96CS7) | -0.373 | -0.142
51 | PLBD2_Q8NHP8_244_IKPSLGSGSCSALIK (UniProt Q8NHP8) | -0.0872 | -0.441
52 | PLAA_Q9Y263_605_AINCPEDIVFPALDILR (UniProt Q9Y263) | -0.0621 | -0.002
53 | PLEC_Q15149_3336_CRPDQLTGLSLLPLSEK (UniProt Q15149) | -0.00331 | -0.146
54 | PLCB2_Q00722_1169_ACECPPELCEQDPLIAK (UniProt Q00722) | 0.0923 | -0.538
55 | PIK3R4_Q99570_1011_VSDEHSLFATCSNDGTVK (UniProt Q99570) | 0.204 | 0.275
56 | PIKFYVE_Q9Y2I7_807_MTQGDLVMSMDQLLTKPHLGTCHK (UniProt Q9Y2I7) | -0.237 | -0.0147
57 | PLXNB2_O15031_489_DSQDPYCGWCVVEGR (UniProt O15031) | -0.075 | 0.029
58 | PLXNB2_O15031_1149_TLTETDLYCEPPEVQPPPK (UniProt O15031) | -0.00604 | 0.0509
59 | PLA2G15_Q8NCC3_371_SALQCQAWQSR (UniProt Q8NCC3) | 0.0679 | 0.0975
60 | PLEKHA2_Q9HB19_332_SISLTRPGSSSLSSGPNSILCR (UniProt Q9HB19) | -0.0575 | -0.276
61 | PLEKHB2_Q96CS7_75_DCMLQIVCR (UniProt Q96CS7) | 0.262 | 0.396
62 | PLK1_P53350_372_ETGEVVDCHLSDMLQQLHSVNASKPSER (UniProt P53350) | 0.122 | -0.22
63 | PKM_P14618_31_PHSEAGTAFIQTQQLHAAMADTFLEHMCR (UniProt P14618) | -0.00318 | 0.0277
64 | PLCB2_Q00722_216_SFLMSLCPRPEIDEIFTSYHAK (UniProt Q00722) | 0.11 | -0.0654
65 | PIK3R4_Q99570_1180_FQLPISSHCHPSR (UniProt Q99570) | 0.163 | 0.0337
66 | PLD3_Q8IV08_366_LLISCWGHSEPSMR (UniProt Q8IV08) | -0.0913 | 0.0956
67 | PNKP_Q96T60_409_CVTTCETALK (UniProt Q96T60) | 0.0122 | 0.0257
68 | PLCB3_Q01970_1176_LLAQLAQECQEQR (UniProt Q01970) | 0.234 | -0.0169
69 | PML_P29590_204_TPTLTSIYCR (UniProt P29590) | -0.101 | -0.113
